Assay: Sensitivity measurement: acrylate conversion by FT-IR before and after exposure
Settings: 1 g photoinitiator in composition, 2.5 μm film, high-pressure mercury lamp 20 mW/cm^2 for 5 sec

Structure (SMILES)	Acrylate conversion (%)
CC(=O)O/N=C/c1ccc(-c2ccc(-c3nc(C(Cl)(Cl)Cl)nc(C(Cl)(Cl)Cl)n3)cc2)cc1 [Comparative Example 3, 2,4-trichloromethyl-(4′-formylbiphenylacetoxime)-6-triazine]	39
CCn1c2ccc(C(=O)c3ccc(OCC4COC(C)(C)O4)cc3)cc2c2cc(/C(CC(c3ccccc3)N(OC(C)=O)C(C)=O)=N/OC(C)=O)ccc21 (stereo not shown) [Example 1]	40
CC(=O)O/N=C(\C)c1ccc(-c2nc(C(Cl)(Cl)Cl)nc(C(Cl)(Cl)Cl)n2)cc1 [Comparative Example 2, 2,4-trichloromethyl-(4′-acetylphenylacetoxime)-6-triazine]	36
CCn1c2ccc(C(=O)c3ccccc3C)cc2c2cc(/C(C)=N/OC(C)=O)ccc21 [Comparative Example 1]	38

From US8252507B2, “Photoactive compound and photosensitive resin composition comprising the same” (LG Chem, Ltd., priority 2008, dated 2012)
